# This is one part of the list.
# Biological target: T1, OsSMF1 (Oryza sativa, UniProt Q6ZLB0 1-436)
# T1 sequence: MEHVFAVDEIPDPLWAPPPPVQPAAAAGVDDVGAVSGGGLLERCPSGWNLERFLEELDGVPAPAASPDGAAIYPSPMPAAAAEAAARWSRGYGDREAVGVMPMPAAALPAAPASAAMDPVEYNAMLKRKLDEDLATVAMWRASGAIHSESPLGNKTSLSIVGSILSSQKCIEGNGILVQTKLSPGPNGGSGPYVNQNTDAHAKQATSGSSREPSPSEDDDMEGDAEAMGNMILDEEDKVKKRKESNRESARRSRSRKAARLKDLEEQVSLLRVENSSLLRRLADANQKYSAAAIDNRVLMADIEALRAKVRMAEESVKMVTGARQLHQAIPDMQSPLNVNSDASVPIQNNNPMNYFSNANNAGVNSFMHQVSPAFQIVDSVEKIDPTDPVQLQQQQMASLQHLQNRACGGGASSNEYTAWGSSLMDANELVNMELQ
# Test: protein-binding microarray (RPBM); PBS, 2% BSA, 51.3 ng/ul salmon testes DNA, 50 uM zinc acetate, 200 nM TF, 25 C, 1 h; high values mean tight binding
# Conditions: protein: recombinant; tags: N-terminal polyhistidine and DsRed monomer fusion (pET32a); chain copies: 2; label: CyDye5-dUTP incorporated in the synthesized complementary strand; 3' TTTTT single-stranded linker to array surface; dsDNA, one strand shown
# Method in brief: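 Binding signal is reported as fluorescence intensity per feature (arbitrary units) from an Axon 4000B scanner. Incubation used 200 nM of each Ni–NTA-purified, N-terminally polyhistidine- and DsRed-fused transcription factor from E. coli BL21-CodonPlus on a double-stranded custom Agilent array for 1 h at 25 °C, with 50 µM zinc acetate in the buffer, followed by washing.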
row,Sequence,binding signal
1,ACACAGTCACACTGTGCGAGCCTGTGTGGGACTGTGGGTGCGGAGTCACCTAGTGCAG,3390 fluorescence intensity (a.u.)
2,CGGACTTGCCGGAGCTGACCTGGACGACCGACCTCGACGACGGAGTCACCTAGTGCAG,5630 fluorescence intensity (a.u.)
3,TCCCATCGATGATCCTTCGTTGATTCGCGTCAACCTCTCGCGGAGTCACCTAGTGCAG,3220 fluorescence intensity (a.u.)
4,TTCTCCCTCTACTATTGCTGACGCCACCAACGCCCATGTGCGGAGTCACCTAGTGCAG,13500 fluorescence intensity (a.u.)
5,TTTCGCCTCGTCGATTCGTCGAACACCTCGCGAGCTTCCTCGGAGTCACCTAGTGCAG,3380 fluorescence intensity (a.u.)
6,CGGACCAAGTAACTCGTCGTGCCATCAAACCAGGCTACCTCGGAGTCACCTAGTGCAG,3170 fluorescence intensity (a.u.)
7,AACCCTTCACGTAAAATTGTTACGCCACGTCATCTACATACGGAGTCACCTAGTGCAG,24500 fluorescence intensity (a.u.)
8,CATGTGACATGTTATTTTAGTATCCACGTGGCACGATATGCGGAGTCACCTAGTGCAG,17400 fluorescence intensity (a.u.)
9,CTTGCCAGGTCAGACTGTAAGCATAAAGAATCCAATCACGCGGAGTCACCTAGTGCAG,5160 fluorescence intensity (a.u.)
10,ATGCTGCAGCCGATAATGATTCTAAGCCGATGACGCCTTTCGGAGTCACCTAGTGCAG,4550 fluorescence intensity (a.u.)
11,GGGGAGGAGGAGGAGGAGGGTAGGGATGGGGAAGAGGAGTCGGAGTCACCTAGTGCAG,3650 fluorescence intensity (a.u.)
12,ATACATCTTGCTGTTGAATTTCTATCATAATCCCTGTACTCGGAGTCACCTAGTGCAG,31100 fluorescence intensity (a.u.)
13,CTTTGGTCCTCGCCCGCATGCCGCTGTCGCCACCGCTGTGCGGAGTCACCTAGTGCAG,3710 fluorescence intensity (a.u.)
14,TCTTCCTTGGCGACATCTTCCTAGCTGCCGCTCGGCCGCCCGGAGTCACCTAGTGCAG,4090 fluorescence intensity (a.u.)
15,GCCGGCGACGACAGGAGCAAGGTGGTGGTGGTGGGCGACGCGGAGTCACCTAGTGCAG,31100 fluorescence intensity (a.u.)
16,CGATAGCCTATCTTAGGAACCAGTTTTAATGACACTGCAACGGAGTCACCTAGTGCAG,4340 fluorescence intensity (a.u.)
17,CCTTATCCTCGTGAGCGTGACGTGCCCTCGTCGACGCGATCGGAGTCACCTAGTGCAG,6440 fluorescence intensity (a.u.)
18,CCCCGTCTTCTCATCACCAGCTCAGCTGTGGCCGGCCGCGCGGAGTCACCTAGTGCAG,3770 fluorescence intensity (a.u.)
19,GTTGCCCTCTCCTTCCCGGCGCGGCCACTCCGTCCGCCGCCGGAGTCACCTAGTGCAG,3290 fluorescence intensity (a.u.)
20,CACTCCCTTTCTCTTTCTCAGTGACTGTTCCACTGTCCTGCGGAGTCACCTAGTGCAG,3560 fluorescence intensity (a.u.)
21,TTCACTCAGAACAGCTTTGCTGAAGAATGCCAAGTATGTCCGGAGTCACCTAGTGCAG,3380 fluorescence intensity (a.u.)

row,Sequence,binding signal
1,AGTATGTTTCATTTGTCCCGGCCCCACGTATCAATGAAACCGGAGTCACCTAGTGCAG,3280 fluorescence intensity (a.u.)
2,CAAAATTAGGCCGCGTCCTCTTCTCCATTTTCCAGCTAGACGGAGTCACCTAGTGCAG,3300 fluorescence intensity (a.u.)
3,ACGCGGCCGACATGAAGAATTCTTTCACCTCCAAAGTACTCGGAGTCACCTAGTGCAG,29900 fluorescence intensity (a.u.)
4,CGATCCGATCCAACTCATCCGACCACGACGTCTCGTCCGGCGGAGTCACCTAGTGCAG,3580 fluorescence intensity (a.u.)
5,CATTATACATGTGTCATGTGTATTCGACTTCTGTGCTGCCCGGAGTCACCTAGTGCAG,4750 fluorescence intensity (a.u.)
6,GTGCAGCAATCATCTCGTCCACCTCACCTTACCCGAAACCCGGAGTCACCTAGTGCAG,7430 fluorescence intensity (a.u.)
7,GCAACGGATATCGTGCCACGTCGGTTGCCAAGTCAGCACACGGAGTCACCTAGTGCAG,26200 fluorescence intensity (a.u.)
8,CCCTGCGCCGCGTGACCGTCAACTGACGTGGCCCATCCCTCGGAGTCACCTAGTGCAG,16200 fluorescence intensity (a.u.)
9,CTTCCATATATCCTTGTCACAAGCTAGCTCACAAAACTTCCGGAGTCACCTAGTGCAG,4680 fluorescence intensity (a.u.)
10,ACCAAAGTTGGTACAAGTGTATAATCAGAATGGGAGAGCGCGGAGTCACCTAGTGCAG,21600 fluorescence intensity (a.u.)
11,AGTGGCAGGGGTGTGGGGATTGCCGGCTTGCCGCGGAGGACGGAGTCACCTAGTGCAG,3530 fluorescence intensity (a.u.)
12,ATCACGTGATTAAAACAGTAATTATCGAGCACGGAAGGAACGGAGTCACCTAGTGCAG,40600 fluorescence intensity (a.u.)
13,CTCATCTGTCATACACACTGCGTCTTAAATTCTGTGTTATCGGAGTCACCTAGTGCAG,3470 fluorescence intensity (a.u.)
14,GTACTGACAATAGATCCTTAACAGGGAGAGTTTAGAAATGCGGAGTCACCTAGTGCAG,26700 fluorescence intensity (a.u.)
15,CATGCTCCACGTCCTTATGTCTCTCCAGTTTTACTGTATCCGGAGTCACCTAGTGCAG,6750 fluorescence intensity (a.u.)
16,TATTGATTATGGTGTCATGTCTAGCTGATGGATGACTAATCGGAGTCACCTAGTGCAG,4500 fluorescence intensity (a.u.)
17,TTATAACCCATATTTCTGGGTGTGGCCTGCCACGTGTCACCGGAGTCACCTAGTGCAG,30100 fluorescence intensity (a.u.)
18,GGAGTATAATAAATACGAAATGAATGACATCAGAGAGTACCGGAGTCACCTAGTGCAG,3270 fluorescence intensity (a.u.)
19,CGGTCCTCCCCTCTCGCCACCACCACATCACGCCGCCGTTCGGAGTCACCTAGTGCAG,6760 fluorescence intensity (a.u.)
20,CCAACTTCCTGGAAGTTGCAGCCTTGCAGGTGACGCGGCTCGGAGTCACCTAGTGCAG,5180 fluorescence intensity (a.u.)
21,GTCCCCTGTTGCACTTAGATATTTAACTTTGTTAAGGATTCGGAGTCACCTAGTGCAG,4820 fluorescence intensity (a.u.)

# Part of the list above, set out differently:
row	Sequence	binding signal
19	CGGTCCTCCCCTCTCGCCACCACCACATCACGCCGCCGTTCGGAGTCACCTAGTGCAG	6760 fluorescence intensity (a.u.)
20	CCAACTTCCTGGAAGTTGCAGCCTTGCAGGTGACGCGGCTCGGAGTCACCTAGTGCAG	5180 fluorescence intensity (a.u.)
21	GTCCCCTGTTGCACTTAGATATTTAACTTTGTTAAGGATTCGGAGTCACCTAGTGCAG	4820 fluorescence intensity (a.u.)
